Measurements: patent US20200165612

Sequences of proteins named here, by UniProt entry; tags and fusion partners are left off.
UniProt A0A2K5X4G5, entry or part of it: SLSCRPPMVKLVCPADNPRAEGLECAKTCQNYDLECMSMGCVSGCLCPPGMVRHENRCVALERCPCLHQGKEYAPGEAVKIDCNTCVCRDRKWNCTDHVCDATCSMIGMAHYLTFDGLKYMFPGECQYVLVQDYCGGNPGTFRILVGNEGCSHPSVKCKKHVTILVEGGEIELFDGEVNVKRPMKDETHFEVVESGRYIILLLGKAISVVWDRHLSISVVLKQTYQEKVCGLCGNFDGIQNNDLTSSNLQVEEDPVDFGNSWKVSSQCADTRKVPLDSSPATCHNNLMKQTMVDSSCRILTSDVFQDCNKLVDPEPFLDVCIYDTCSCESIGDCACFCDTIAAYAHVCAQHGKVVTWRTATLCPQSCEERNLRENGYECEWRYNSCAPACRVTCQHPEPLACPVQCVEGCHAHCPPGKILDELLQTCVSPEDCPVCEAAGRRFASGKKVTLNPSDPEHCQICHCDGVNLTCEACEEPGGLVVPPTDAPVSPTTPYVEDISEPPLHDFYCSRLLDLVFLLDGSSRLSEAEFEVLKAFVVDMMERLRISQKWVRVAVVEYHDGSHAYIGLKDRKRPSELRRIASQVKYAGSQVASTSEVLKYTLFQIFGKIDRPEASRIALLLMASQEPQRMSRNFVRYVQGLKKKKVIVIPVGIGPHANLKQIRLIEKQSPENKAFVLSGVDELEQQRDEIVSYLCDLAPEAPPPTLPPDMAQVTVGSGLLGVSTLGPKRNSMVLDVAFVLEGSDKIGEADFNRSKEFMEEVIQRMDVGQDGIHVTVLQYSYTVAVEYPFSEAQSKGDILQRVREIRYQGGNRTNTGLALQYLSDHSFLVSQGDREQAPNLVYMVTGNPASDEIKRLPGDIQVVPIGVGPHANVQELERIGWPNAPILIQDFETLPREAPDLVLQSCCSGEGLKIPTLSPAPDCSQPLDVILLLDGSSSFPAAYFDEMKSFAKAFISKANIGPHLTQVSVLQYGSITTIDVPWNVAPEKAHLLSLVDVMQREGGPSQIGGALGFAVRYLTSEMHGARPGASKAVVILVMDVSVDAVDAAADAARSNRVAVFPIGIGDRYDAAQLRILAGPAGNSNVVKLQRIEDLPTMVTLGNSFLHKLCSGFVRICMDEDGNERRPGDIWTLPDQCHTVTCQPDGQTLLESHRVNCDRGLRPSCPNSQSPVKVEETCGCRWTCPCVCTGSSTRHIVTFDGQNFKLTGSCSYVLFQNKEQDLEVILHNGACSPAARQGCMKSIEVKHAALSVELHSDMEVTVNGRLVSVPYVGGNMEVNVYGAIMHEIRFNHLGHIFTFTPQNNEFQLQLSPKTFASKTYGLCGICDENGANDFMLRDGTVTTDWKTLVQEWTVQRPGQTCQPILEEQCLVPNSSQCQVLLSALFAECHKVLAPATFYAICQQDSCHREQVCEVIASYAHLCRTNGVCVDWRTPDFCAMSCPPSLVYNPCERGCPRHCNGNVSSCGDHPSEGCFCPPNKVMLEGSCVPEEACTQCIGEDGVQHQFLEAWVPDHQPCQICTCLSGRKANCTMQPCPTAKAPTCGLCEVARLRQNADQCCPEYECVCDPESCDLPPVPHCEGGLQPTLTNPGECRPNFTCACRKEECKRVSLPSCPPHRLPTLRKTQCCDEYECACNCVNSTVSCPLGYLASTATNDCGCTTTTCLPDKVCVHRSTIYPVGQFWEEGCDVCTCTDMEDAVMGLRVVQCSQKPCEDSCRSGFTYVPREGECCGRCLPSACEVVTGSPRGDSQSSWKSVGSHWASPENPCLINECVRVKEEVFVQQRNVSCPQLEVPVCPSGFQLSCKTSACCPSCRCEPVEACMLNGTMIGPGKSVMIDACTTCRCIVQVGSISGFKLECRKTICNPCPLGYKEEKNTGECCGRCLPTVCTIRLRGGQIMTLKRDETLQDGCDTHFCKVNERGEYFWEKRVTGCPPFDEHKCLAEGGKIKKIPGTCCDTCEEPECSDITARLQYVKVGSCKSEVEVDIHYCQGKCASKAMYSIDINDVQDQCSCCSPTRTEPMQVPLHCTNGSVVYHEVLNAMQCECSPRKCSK

Assays:
[1] = biological target: von Willebrand factor (VWF) (Homo sapiens) (UniProt P04275); experiment: inhibition of the protein; conditions: protein in an extract, protein details: native VWF in human plasma / whole blood; for functional effect of the aptamer (AUC at 100 nM (baseline 87)): ristocetin-induced whole blood aggregation (Multiplate), 37 C
[2] = biological target: von Willebrand factor (VWF) (Macaca fascicularis (cynomolgus monkey)) (UniProt A0A2K5X4G5); experiment: inhibition of the protein; conditions: as BT-100, 3' idT, 5' branched 40K PEG; PFA-200 CADP closure time ED50, cynomolgus samples, n=16, 95% CI 0.135-3.599; mean of individual ED50 0.576 ug/ml; protein in an extract; variant of BT-100

GCCAGGGACCUAAGACACAUGUCCCUGGC [BT-100]
functional effect of the aptamer (AUC at 100 nM (baseline 87)) ([1]; 2'-OMe (claimed sugar modification), 3' idT (terminal t of SEQ ID NO: 2), 5' NH2 via C6 linker, AUC 5 at 25 nM before arterial block, about 90% inhibition at 25-50 nM): 2

GCCAGGGACCUAAGACACAUGUCCCUGGC [BT-200]
EC50 [2]: 0.697 µg/mL
EC50 ([1]; as BT-100, 3' idT, 5' branched 40K PEG, PFA-200 CADP closure time ED50, human samples, n=14, 95% CI 0.086-0.408, mean of individual ED50 0.158 ug/ml, variant of BT-100): 0.187 µg/mL

GGGACCUAAGACACAUGUCCC [ARC15105]
functional effect of the aptamer (AUC at 100 nM (baseline 87)) ([1]; PEGylated, 3' idT (terminal t), up to 16-fold higher concentration than BT-100 needed for 90% inhibition): 56

The exact form of at least one protein or probe is not confirmed. Results from cells or extracts need not show a direct contact.
